Test results published in patent US8242166B2, “C(10) ethyl ester and C(10) cyclopropyl ester substituted taxanes” (Florida State University Research Foundation, Inc., priority 2008, dated 2012).
Some results were stated once for a whole list of compounds, not compound by compound.

Test system: human BxPC-3 human pancreatic xenograft
Assay type: in vivo
Conditions: 5 mg/kg/inj IV; from D33
Procedure: Method: Twenty four (24) hours after a whole body irradiation with a γ-source (7.0 Gy, Co^60, INRA, Dijon, France) 20×10^6 BxPC-3 cells in 200 μl of RPMI 1640 culture medium were subcutaneously injected in the right flank of 8 female Nude rats to generate tumor material. When the tumor size reaches approximately 1,000 mm^3, the tumors were surgically excised for implantation into recipient Nude female rats. Twenty four (24) hours after a whole body irradiation (7.0 Gy, Co^60, INRA, Dijon, France), fresh BxPC-3 tumor fragments were sc implanted in the right flank of 52 Nude female rats (1 fragment/rat) at D0 using surgical pliers and skin was stitched. The antitumor activity study was started at D21 when the mean tumor volume has reached 321.6±131.2 mm^3. Before the start of treatments, 42 tumor bearing rats out of 52 grafted were randomized into 7 groups of 6 animals.
[…]. At 7 mg/kg/inj, only two treatments were performed at D21 and D42 due to severe body weight loss.

CCC(=O)O[C@H]1C(=O)[C@@]2(C)C([C@H](OC(=O)c3ccccc3)[C@]3(O)C[C@H](OC(=O)[C@H](O)[C@@H](NC(=O)OC4CCC4)c4cccs4)C(C)=C1C3(C)C)[C@]1(OC(C)=O)CO[C@@H]1C[C@@H]2O (stereo partly shown) [Compound 19244]
T/C % values: lower than 42%
